{
  "source": "patent US20130323786A1",
  "key": {"LINGO-1 (human) [1]": {"biological_target": "LINGO-1 (human)", "assay": "ELISA and FACS"}, "LINGO-1 (human) [2]": {"biological_target": "LINGO-1 (human)", "assay": "ELISA"}, "LINGO-1 (human) [3]": {"biological_target": "LINGO-1 (human)", "assay": "LINGO-1 ELISA"}},
  "note": "Results are given in words; binding and its absence hold for the method and conditions named. Binding calls can cover weak binding; strength is not graded here.",
  "data": [
    {"binder": "Li62 Fab (Fab, V domains shown) VH: EVQLLESGGGLVQPGGSLRLSCAASGFTFSIYPMFWVRQAPGKGLEWVSWIGPSGGITKYADSVKGRFTISRDNSKNTLYLQMNSLRAEDTATYYCAREGHNDWYFDLWGRGTLVTVSS VL: DIQMTQSPSFLSASVGDSVAITCRASQDISRYLAWYQQRPGKAPKLLIYDASNLQTGVPSRFSGSGSGTDFTFTITSLQPEDFGTYYCQQYDTLHPSFGPGTTVDIK", "values": [
      {"measurement": "binding", "setting": "LINGO-1 (human) [1]", "value": "binds"}
    ]},
    {"binder": "PEG-Li33 Fab' (Fab, V domains shown, 10 kDa methoxy-polyethyleneglycol maleimide on the 2 free hinge Cys residues) VH: EVQLLESGGGLVQPGGSLRLSCAASGFTFSIYPMFWVRQAPGKGLEWVSWIGPSGGITKYADSVKGRFTISRDNSKNTLYLQMNSLRAEDTATYYCAREGHNDWYFDLWGRGTLVTVSS VL: DIQMTQSPGTLSLSPGERATLSCRASQSVSSYLAWYQQKPGQAPRLLIYDASNRATGIPARFSGSGSGTEFTLTISSLQSEDFAVYYCQQYDKWPLTFGGGTKVEIKR", "values": [
      {"measurement": "binding", "setting": "LINGO-1 (human) [2]", "value": "binds"}
    ]},
    {"binder": "Li62 (agly) (antibody, V domains shown) VH: EVQLLESGGGLVQPGGSLRLSCAASGFTFSIYPMFWVRQAPGKGLEWVSWIGPSGGITKYADSVKGRFTISRDNSKNTLYLQMNSLRAEDTATYYCAREGHNDWYFDLWGRGTLVTVSS VL: DIQMTQSPSFLSASVGDSVAITCRASQDISRYLAWYQQRPGKAPKLLIYDASNLQTGVPSRFSGSGSGTDFTFTITSLQPEDFGTYYCQQYDTLHPSFGPGTTVDIK", "values": [
      {"measurement": "binding", "setting": "LINGO-1 (human) [1]", "value": "binds"}
    ]},
    {"binder": "Li113 Fab (Li62 variant C02, VH CDR3 SEQ ID NO:30) (Fab, V domains shown) VH: EVQLLESGGGLVQPGGSLRLSCAASGFTFSIYPMFWVRQAPGKGLEWVSWIGPSGGITKYADSVKGRFTISRDNSKNTLYLQMNSLRAEDTATYYCAREGTYDWYLDLWGRGTLVTVSS VL: DIQMTQSPSFLSASVGDSVAITCRASQDISRYLAWYQQRPGKAPKLLIYDASNLQTGVPSRFSGSGSGTDFTFTITSLQPEDFGTYYCQQYDTLHPSFGPGTTVDIK", "values": [
      {"measurement": "binding", "setting": "LINGO-1 (human) [3]", "value": "binds"}
    ]}
  ]
}
